For data set [1], the system named is cjRecO (Campylobacter jejuni). Briefly: fluorescence polarization. The settings on record: lower affinity than cjRecR; Fluorescence polarization: 0.8 nM fluorescein 40-mer ssDNA, protein up to 100 uM, one-site fit; pH and temperature not stated; recombinant protein; single-stranded DNA.
The next data set has as its system cjRecR + cjRecO. Briefly: fluorescence polarization. The settings on record: cjRecR and cjRecO mixture, only additive effect, no stable RecOR complex detected; Fluorescence polarization: 0.8 nM fluorescein 40-mer ssDNA, protein up to 100 uM, one-site fit; pH and temperature not stated; recombinant protein; protein details: His6 tag removed with thrombin; single-stranded DNA.

The exact form of at least one protein or probe is not confirmed. For some assays here: Weaker means in comparison with the reference protein, sequence or condition of that experiment.

Turning to “TTATAGGCATATAGGAGTAATTTTCTTGGGCTATGCAGTA [40-mer ssDNA]”, the binding result was “binds more weakly” in data set [1] and “binds” in the data set with cjRecR + cjRecO.

For the origin of these results see paper PMC10454854, “Structural and Biochemical Analysis of the Recombination Mediator Protein RecR from Campylobacter jejuni” (International Journal of Molecular Sciences, 2023).
